Screen size: about 200,000 compounds; about 25 (0.01%) were called active. The shares of active, inactive and inconclusive entries below differ from those in the screen. Calls follow the shape of the dose curve; as a rule, active = well fitted inhibition curve with a large enough effect in the signal ratio, with a control signal flat (not every such curve was filed as active); inconclusive = small, poorly fitted or top-dose-only effect, or effect the other way, or a change in a side signal; inactive = flat fitted curve, though single readings scatter; the % refers to the signal ratio. Potencies of inconclusive entries are doubtful fits and often do not repeat.
Assay: qHTS Assay for Modulators of Lamin A Splicing
Details: HeLa LMNA splicing GFP/RFP minigene ratio, 48 h; ratio change, negative = inhibition: at 46.1 µM (top of the series) unless noted
Summary of the method: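 Read-out is the ratio of GFP to DsRed2 object intensity, acquired by 488 nm laser-scanning cytometry on HeLa lamin A-EGFP minigene reporter cells. Compound incubation 48 hrs at 37 °C in Opti-MEM with 2% FBS; DMSO 0.5% final.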
% is scaled to controls: 0 for no effect and ±100 for the full control effect; potency is read from the fitted curve at half-maximal effect.

Row | SMILES | ratio change, negative = inhibition | Potency
1 | Cc1cc(NC(=O)CSc2nc(-c3ccccc3C)nc3c2c(=O)n(C)c(=O)n3C)no1 | inactive | –
2 | OC(c1ccccc1)c1nccc2ccccc12 (stereo not drawn) | – | inconclusive: 5.62 µM [cytotoxic, single point]
3 | Cc1ccc(Sc2ncccc2COC(=O)NC(C)C)cc1 | inactive: -1.86% [at 9.22 µM] | –
4 | NS(=O)(=O)c1ccc(CCNc2ncnc3c2cnn3-c2cccc(Cl)c2)cc1 | inactive | –
5 | CC(=O)c1c(C)[nH]c(C(=O)OCC(=O)Nc2ccc(C)cc2[N+](=O)[O-])c1C | – | inconclusive: 1.41 µM [fluorescent, full curve]
6 | CCOC(=O)c1c(C)oc2nc(C)nc(NCCc3ccc(SC)cc3)c12 | inactive | –
7 | COc1ccc(C2=CC(c3cccc(C)c3)n3nnnc3N2)cc1 (stereo not drawn) | inactive | –
8 | COc1ccc(NC(=O)NNc2cc(N3CCOCC3)nc(N3CCOCC3)n2)cc1 | inconclusive: -6.59% [at 46 µM] | –
9 | C=CC(=O)NC(NC(=O)C=C)c1ccc(Br)cc1 | inconclusive: -8.43% | –
10 | COCCN(C(=O)Cc1cccs1)c1nnc(-c2cccnc2)s1 | inconclusive: 3.88% | –
11 | O=C(Cc1ccc(Cl)cc1)NCC(c1cccs1)S(=O)(=O)c1ccc(F)cc1 (stereo not drawn) | inactive | –
12 | Cc1snc(SCC(=O)c2ccc(Cl)cc2)c1C#N | inactive | –
13 | c1ccc2c(CN3CCCCC3)csc2c1 | inactive | –
14 | Cc1ccccc1C(=O)N1CCc2cc(-c3nc(NC(=O)Cc4ccc5c(c4)OCO5)sc3C)ccc21 | inconclusive: -9.45% | –
15 | CCOC(=O)c1ccc(OC(=O)CCCCCN=C(N)N)cc1 | inconclusive: -13.9% | –
16 | Cc1cccc(C(=O)O/N=C(\c2ccccc2)c2cccnc2)c1 | inactive | –
17 | Cc1nnc(SCC(=O)c2ccc(Br)cc2)s1 | inactive | –
18 | COc1ccc(CNC(=O)CSc2ccc(Br)cc2)cc1OC | inconclusive: -6.81% | –
19 | CCOC(=O)c1c(C)[nH]c(C(=O)OC/C(O)=C(\C#N)c2nc3ccccc3[nH]2)c1C | – | inconclusive: 35.5 µM [cytotoxic, single point]
20 | COc1ccccc1C1NC=C([N+](=O)[O-])C=C1[N+](=O)[O-] (stereo not drawn) | inconclusive: 11.5% | –
21 | CCC(=O)NC(=S)NNC(=O)c1ccc(OC)cc1 | inconclusive: -30.1% | –

Row | SMILES | ratio change, negative = inhibition | Potency
22 | Cc1ccc(C)c(N2CCN(c3nc4ccccc4n4c(C)nnc34)CC2)c1 | inconclusive: -20% [at 46 µM] | –
23 | COC(=O)c1[nH]nc2c1C(=O)N(Cc1ccccc1)C2=O | inconclusive: 14% | –
24 | O=C(CN1C(=O)/C(=C/c2c(F)cccc2Cl)Oc2ccccc21)NCc1ccco1 | inconclusive: -15.1% [at 46 µM] | –
25 | CCOC(=O)c1c(NC(=O)CSc2nnc(-c3c[nH]c4ccccc34)n2CCOC)sc2c1CCCCC2 | – | inconclusive: 35.5 µM [fluorescent, single point]
26 | CC1CN(C(=O)C(C)N2CCN(c3ccccc3Cl)CC2)CC(C)O1 (stereo not drawn) | inconclusive: 18.9% [at 46 µM] | –
27 | CCc1ccccc1NC(=O)CN1C(=O)c2cccnc2Oc2ccc(Cl)cc21 | inconclusive: 3.29% [at 46 µM] | –
28 | CC(C)(C)OC(=O)N1CCC(c2c(C(=O)Nc3ccc4c(c3)OCCO4)cnn2-c2ccccc2)CC1 | inactive | –
29 | CC(C)CNS(=O)(=O)c1ccc(OCC(=O)Nc2ccc3c(c2)OCCO3)cc1 | inconclusive: -10% | –
30 | O=c1c(Cc2c(F)cccc2Cl)c(O)ccn1CC1CCCO1 (stereo not drawn) | inconclusive: -6.23% [at 46 µM] | –
31 | CCOC(=O)c1[nH]c2ccccc2c1NC(=S)Nc1ccccc1 | inconclusive: 7.66% | –
32 | Cc1ccc2[nH]c(=O)c(CN(CC3CCCO3)S(=O)(=O)c3c(C)ccc4nsnc34)cc2c1 (stereo not drawn) | inactive | –
33 | O=C(CCC1N=C2c3ccccc3N=C(SCc3ccc(Cl)cc3)N2C1=O)NCc1ccco1 (stereo not drawn) | inconclusive: -3.87% | –
34 | O=[N+]([O-])c1[nH]cnc1/C=C/c1ccccc1 | inconclusive: 10.8% [at 46 µM] | –
35 | COc1ccc2nc3sc(C(=O)NCCCN4CCc5ccccc5C4)cc3cc2c1 | – | inconclusive: 31.6 µM [falling, partial curve]
36 | COc1cccc(C(=O)NC(=S)N2CCN(c3ccc(C(F)(F)F)cc3[N+](=O)[O-])CC2)c1 | inactive | –
37 | COc1ccc(C(=O)Nc2ccccc2C(=O)N/N=C/c2ccco2)cc1 | inactive | –
38 | NC(=O)c1ccc(NC(=O)Cc2csc(-c3ccccc3)n2)cc1 | inconclusive: 6.8% [at 46 µM] | –
39 | CCOc1ccc(N2C(=O)N(Cc3c(F)cccc3Cl)c3ccccc3S2(=O)=O)cc1 | inactive | –
40 | Cc1ccc(O)c(CNc2cccc3cccnc23)c1 | inactive | –
41 | O=C1OCCC1Sc1nc2ccccc2c(=O)n1Cc1ccccc1 (stereo not drawn) | inconclusive: 18.6% [at 46 µM] | –
42 | Cc1ccc(-n2[nH]c(C)c(/C=N/NC(=O)c3cccc([N+](=O)[O-])c3)c2=O)cc1C | – | inconclusive: 3.55 µM [falling, full curve]

Row | SMILES | ratio change, negative = inhibition | Potency
43 | Cc1cc(OCC(=O)Nc2ccncc2)ccc1Br | – | inconclusive: 11.2 µM [falling, single point]
44 | CCc1ccc(Nc2nnc(SCC(=O)NCCN3C(=O)CSC3=O)s2)cc1 | inconclusive: -4.46% | –
45 | Cc1ccccc1OCC(O)CN(Cc1ccccc1O)C1CCCCC1 (stereo not drawn) | – | inconclusive: 31.6 µM [inhibitor, partial curve]
46 | S=C(NCCc1ccccc1)NCc1ccccc1Cl | – | inconclusive: 35.5 µM [fluorescent, single point]
47 | CCCSC1=N/C(=C\c2ccsc2)C(=O)S1 | inactive | –
48 | Cc1nnc(C)n1/N=C/c1ccc(C(C)C)cc1 | inconclusive: 15.2% | –
49 | CCOC(=O)C1CCN(C(=S)Nc2ccc(S(N)(=O)=O)cc2)CC1 | inconclusive: -30.4% | –
50 | N#CC1=C(N)NC(SCC(=O)c2ccc(Cl)cc2)=C(C#N)C12CCCC2 | inactive | –
51 | CCOC(=O)c1ccc(NC(=S)N(CCCN2CCN(CC)CC2)Cc2ccco2)cc1 | inconclusive: -26.1% [at 46 µM] | –
52 | O=C1CCC/C(=N\NC(=O)c2ccc(COc3ccccc3-c3ccccc3)cc2)C1 | inconclusive: -38.7% [at 46 µM] | –
53 | CCOC(=O)c1sc(N/N=C/c2ccccc2)nc1C | inconclusive: 0.695% | –
54 | CC(C)(C)NC(=O)CSc1nc2scc(-c3ccccc3)c2c(=O)[nH]1 | inconclusive: -51.2% | –
55 | Cc1ccc(S(=O)(=O)N[C@@H](C)C(=O)N2CCC(C(=O)N3CCC[C@H]3C(=O)O)CC2)cc1 | inconclusive: 10.8% [at 46 µM] | –
56 | Cc1cc(NS(=O)(=O)c2ccc(NC(=O)c3cc(-c4cccnc4)nc4ccc(Cl)cc34)cc2)no1 | inactive | –
57 | Cc1ccccc1C(=O)N1CCN(CCc2ccccn2)CC1 | inconclusive: 10.9% [at 46 µM] | –
58 | COc1ccccc1CNC(=O)COC(=O)c1cccnc1SCC(=O)NCc1ccccc1OC | inconclusive: -30.5% [at 46 µM] | –
59 | FC(F)(F)c1nnc2ccc(Cl)nn12 | inconclusive: 39.1% [at 46 µM] | –
60 | COc1ccc(C2=CC(c3ccc(OC)c(OC)c3)NC(=S)N2)cc1 (stereo not drawn) | inconclusive: -12.2% | –
61 | CN(C)c1ccc(CNS(=O)(=O)c2ccc3[nH]c4c(c3c2)CCCCC4)cc1 | – | inconclusive: 2.51 µM [inhibitor, full curve]
62 | COc1ccc(C(=O)/C=C/c2ccc(OC)c(COc3ccc(F)cc3)c2)cc1 | inconclusive: 4.67% | –
63 | NC(=O)NO | – | inconclusive: 11.2 µM [inhibitor, partial curve, poor fit]

Full records as entered above:
`COc1ccc(C2=CC(c3ccc(OC)c(OC)c3)NC(=S)N2)cc1` (stereo not drawn) in the list: ratio change, negative = inhibition: inconclusive: -12.2%
`CN(C)c1ccc(CNS(=O)(=O)c2ccc3[nH]c4c(c3c2)CCCCC4)cc1` in the list: Potency: inconclusive: 2.51 µM [inhibitor, full curve]
`O=C1CCC/C(=N\NC(=O)c2ccc(COc3ccccc3-c3ccccc3)cc2)C1` in the list: ratio change, negative = inhibition: inconclusive: -38.7% [at 46 µM]
`S=C(NCCc1ccccc1)NCc1ccccc1Cl` in the list: Potency: inconclusive: 35.5 µM [fluorescent, single point]

Already shown: an excerpt of the list.
Row | SMILES | ratio change, negative = inhibition | Potency
48 | Cc1nnc(C)n1/N=C/c1ccc(C(C)C)cc1 | inconclusive: 15.2% | –
49 | CCOC(=O)C1CCN(C(=S)Nc2ccc(S(N)(=O)=O)cc2)CC1 | inconclusive: -30.4% | –

(listing goes on)

Row | SMILES | ratio change, negative = inhibition | Potency
64 | [O-]/C(=C(\C(=S)NCc1ccccc1)[n+]1ccccc1)c1ccc(Cl)cc1 | inactive | –
65 | COc1cc(/C=C(\C#N)C(N)=O)ccc1OCc1c(C)no[n+]1[O-] | – | inconclusive: 35.5 µM [rising, single point]
66 | O=C(Oc1ccc(C(=S)N2CCOCC2)cc1Br)c1ccccc1F | inconclusive: 5.94% | –
67 | O=C1CN2NC(=S)N(c3ccccc3)C2=CN1c1ccc(Cl)cc1 | inactive | –
68 | CCc1nc2c(c(=O)c3ccccc3n2C)c(=O)n1CCc1ccc(OC)cc1 | – | inconclusive: 10 µM [falling, partial curve]
69 | Cc1cccc(C)c1OCc1nnc(NC(=O)CSc2ccc(Cl)cc2)s1 | inactive | –
70 | O=c1[nH]c2ccc(Br)cc2c(-c2ccccc2)c1CN1CCOCC1 | inconclusive: 10.7% | –
71 | COCc1nnc(NC(=O)c2cc(Cl)ccc2OC)s1 | inactive | –
72 | O=C(N/N=C/c1cc2cc3c(cc2nc1Cl)OCCO3)c1ccccc1O | inconclusive: 3.29% | –
73 | CC1(C)CC(=O)C(C(=O)CCCCC(=O)C2C(=O)CC(C)(C)CC2=O)C(=O)C1 | inconclusive: 10.1% [at 46 µM] | –
74 | C/C(=N\NC(=O)C1=NNC(=O)C1C)c1cccs1 (stereo not drawn) | inactive | –
75 | Nc1n[nH]c(C2CC2)c1N=Nc1ccc(Cl)cc1 | inconclusive: -1.65% [at 46 µM] | –
76 | Cc1ccc(Sc2cnn(-c3ccccc3)c(=O)c2Cl)cc1 | inconclusive: -4.52% | –
77 | Cc1nc2cc(NC(=O)CSc3nc4c(C)cccc4cc3C#N)ccc2s1 | inconclusive: 1.44% | –
78 | Cc1ccc(N2CCN(S(=O)(=O)N3CCCCC3)CC2)cc1Cl | – | inconclusive: 35.5 µM [fluorescent, single point]
79 | [O-]/[N+](=C\c1ccncc1)c1ccc(Br)cc1 | inactive | –
80 | CC1Cc2cc(/C(O)=C3/C(=O)C(=O)N(CCCn4ccnc4)C3c3ccco3)ccc2O1 (stereo not drawn) | inactive | –
81 | CN1N=C(C(=O)N2CCN(c3ccc([N+](=O)[O-])cc3)CC2)CCC1=O | inconclusive: 15.2% | –
82 | Cc1cc(C)nc(NC(=O)CSc2nc3ccccc3s2)n1 | inactive | –
83 | CC(C)Sc1cc(N2CCCC2)nc(-c2ccccc2Cl)n1 | inconclusive: -1.79% | –

Source: PubChem BioAssay AID1487 (National Center for Advancing Translational Sciences (NCATS), 2009)
